Laboratory results: PubChem BioAssay AID652243 (Drosophila RNAi Screening Center, 2013)
The deposit covers about 24,000 reagents; this is an unselected part of those with a known target gene and a result. Over the whole deposit, 246 (1%) are marked active. 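Plates not normalised; calls are printed but the firefly/Renilla ratio behind them is not deposited; fold cut for lowering reported inconsistently.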 The raw values are shown without normalisation. Not stated in the record: the amount of reagent.

Aim: 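Fly regulators of androgen-dependent reporter output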 (primary screen)
Cell system: Drosophila S2R+ cells
Reagents: long dsRNA against Drosophila genes
Timing: 72 h (48 h, then 24 h hormone)
Treatment: synthetic androgen R1881 at 10 nM for 24 h
Detection: 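Per-well raw luminescence of the androgen-driven firefly reporter and of the Renilla control, two replicates each, without normalisation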
Scale: firefly reporter light: higher = more light from androgen-responsive reporter; Renilla control light: higher = more constitutive control signal (cell number, transfection)
Rule for the call: 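Across duplicate plates, a knock-down whose log firefly/Renilla ratio shifted a set fold down or up from the GFP/LacZ control mean was a hit; the downward cut appears as both 1.5 and 3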
Meaning of the calls: active = hit: reporter lowered or raised; inactive = no hit

target,amplicon,"firefly reporter light, replicate 1","firefly reporter light, replicate 2","Renilla control light, replicate 1","Renilla control light, replicate 2",call
qkr54B (GeneID 36966),DRSC07670,1.26e5,1.18e5,1.83e6,1.83e6,inactive
qkr54B (GeneID 36966),DRSC24863,6.71e5,5.63e5,5.57e5,5.90e5,inactive
kdn (GeneID 31579),DRSC18328,2.15e5,1.81e5,1.96e6,2.19e6,inactive
CG7968 (GeneID 34802),DRSC01903,2.61e5,2.54e5,1.86e6,1.91e6,inactive
mfas (GeneID 41455),DRSC16997,39631,43519,2.42e5,3.30e5,inactive
mfas (GeneID 41455),DRSC28658,2.74e5,2.98e5,9.50e5,1.06e6,inactive
CG13841 (GeneID 50061),DRSC14691,1.70e5,1.58e5,1.51e6,1.21e6,inactive
CG13841 (GeneID 50061),DRSC26257,2.11e5,2.05e5,4.43e5,4.24e5,inactive
CG7497 (GeneID 39966),DRSC10857,46258,57407,6.22e5,5.18e5,inactive
CG7497 (GeneID 39966),DRSC28188,3.59e5,3.41e5,1.23e6,1.40e6,inactive
CG7497 (GeneID 39966),DRSC37068,,,,,inactive
Rnf146 (GeneID 40144),DRSC11045,2.02e5,1.27e5,1.97e6,2.28e6,inactive
Spn42Db (GeneID 35599),DRSC05009,1.68e5,1.25e5,1.24e6,8.13e5,inactive
fw (GeneID 32162),DRSC20334,5.11e5,5.86e5,3.59e6,2.80e6,inactive
fw (GeneID 32162),DRSC27087,3.26e5,2.95e5,8.22e5,6.48e5,inactive
CG4678 (GeneID 32652),DRSC19911,4.86e5,5.18e5,3.16e6,2.68e6,inactive
CG4678 (GeneID 32652),DRSC19912,5.61e5,5.27e5,3.27e6,3.20e6,inactive
tre-2 (retired record) (GeneID 7354468),DRSC38632,6.86e5,4.76e5,1.74e6,1.21e6,inactive
CG18659 (GeneID 35929),DRSC06784,3.26e5,2.07e5,2.28e6,1.74e6,inactive
ind (GeneID 2768974),DRSC23095,6.22e5,7.64e5,1.09e6,1.45e6,inactive
CG11113 (GeneID 35659),DRSC06039,3.38e5,2.71e5,1.76e6,1.57e6,inactive
CG15432 (GeneID 33647),DRSC00447,49103,36767,6.43e5,4.04e5,inactive
CG15432 (GeneID 33647),DRSC23618,7.11e5,5.96e5,7.19e5,5.45e5,inactive
noi (GeneID 40678),DRSC12383,28821,18959,2.49e5,2.17e5,inactive
noi (GeneID 40678),DRSC26152,3.55e5,2.28e5,7.99e5,6.87e5,inactive
